# Expression grades refer to the transcript from which the peptide derives; gene names, where given, were looked up from the sequence.
# Test system: source genes of the peptides
# Experiment: Expression of source genes in tumor entities, TCGA Research Network data (target coverage)
# Parameters: species or system human
# Settings: over-expressed = more than 2-fold above highest 75% percentile of normal organs
substance,measurement,setting,value
92: peptide found in IGFBP3 (gene looked up) (LLRGPPVARA; listed as Homo sapiens) [compound 92],"Target coverage, over-expression category of source gene, CHOL (N = 36)",Cholangiocarcinoma,"C (>=5% of tumors above the cutoff, but <20%)"
same,"Target coverage, over-expression category of source gene, KICH (N = 66)",Kidney chromophobe,"C (>=5% of tumors above the cutoff, but <20%)"
same,"Target coverage, over-expression category of source gene, LGG (N = 534)",Lower grade glioma,"C (>=5% of tumors above the cutoff, but <20%)"

# Reference: patent publication US10568950B1, “Peptides, combination of peptides and scaffolds for use in immunotherapeutic treatment of various cancers” (Immatics Biotechnologies GmbH, priority 2015, dated 2020)
